Test results reported in patent US20240425812A1, “HYPOVENTILATION PHYSICAL MODELS AND APPLICATIONS THEREOF” (The University of Hong Kong, priority 2023, published 2024).
At least one compound was matched to its structure with a doubt left.

Test system: HBSO neurons
Assay: Multi-electrode array (MEA) analysis of dissociated day 60 HBSO neurons
Format: cell-based, human
Conditions: 10 μM, applied immediately before recording; 8% CO2; FIG. 1I
Description: The functionality of HBSO neurons, particularly their responses to hypercapnia, is further assessed using multi-electrode array (MEA) analyses. Briefly, Day 60 HBSOs arc dissociated with Papain Dissociation System (Worthington, LK003150) following the manufacturer's protocol. In brief, the HBSOs are digested with the papain solution in 37° C. incubator for 30 min with continuous shaking at 90 r.p.m. and then triturated with P1000 pipette. The triturated HBSOs are further digested in 37° C. incubator for an additional 10 min and then filtered through 40 μm cell strainer (Corning, 352340) to remove undigested cell debris. The dissociated cells are collected by centrifuging at 300×g for 5 min at room temperature. The cells are then resuspended with DNase/ovomucoid inhibitor solution to stop the digestion. […] MEA recordings are measured at 37° C. with 5-8% CO2 in a Maestro Edge MEA System (Axion Biosystems) to detect spontaneous firing of spikes. The MEA plate is pre-equilibrated in the MEA system for at least 5 min before measurement and each treatment is recorded for 5-10 min to calculate the mean spike firing rate. […] The MEA recordings are analyzed using the Neural Module of AxIS Navigator 1.5 software and the Neural Metric Tool software (Axion Biosystems). […]

Compound: CCOC(=O)Nc1ccc(NCc2ccc(F)cc2)cc1N [retigabine]
- elevated firing in response to elevated CO2 levels: can be blocked
